What was measured:
[1] = system: Sonnenblume Sorte Peredovik; assay: Field test of pollen sterilisation, sunflower Peredovik; format: in vivo
From the text: (§1) Die gametozide Aktivität der erfindungsgemäßen Sterilisationsmittel war in Feldversuchen in verschiedenen bodenklimatischen Zonen mit Teilstücken von 10 m^2 Größe in dreibis viermaliger Wiederholung festgestellt. Jedes Sterilisationsmittel wurde mindenstens 5 Jahre lang geprüft.
(§2) Die Entwicklung der Perioden der Organogenese wird zytologisch überwacht. Die Behandlung von Pflanzen mit dem Sterilisationsmittel erfolgt am Anfang der fünften Periode der Organogenese nach Kupermann.
(§3) Zur Kontrolle der chemischen Sterilisation des Sonnenblumenpollens werden für jede Verbindung 45 behandelte Pflanzen je Wiederholung benutzt, wobei 15 Pflanzen zwecks Selbstbestäubung des Blütenkörbchens isoliert werden, 15 Pflanzen mit einem Pollengemisch, gesammelt von 20 bis 25 behandelten isolierten Körbchen, bestäubt werden, und 15 Pflanzen für freie Bestäubung gelassen werden, damit das Ansetzen von Achänen mit dem Pollen der Vaterform kontrolliert worden kann.
(§4) Man beurteilt die Pollensterilität von Pflanzen der Sonnenblume nach der Pollenfertilität und -keimfähigkeit, nach den morphologischen Besonderheiten von Spermien und nach der Fähigkeit von Achänen […] bei der Bestäubung der behandelten isolierten Pflanzen mit dem Pollen der unbehandelten väterlichen Form. Die Lebensfähigkeit der Eizelle wird nach der Samenbildung bei behandelten Pflanzen bei freier Bestäubung der väterlichen Form bestimmt.
Pflanzen der Sonnenblume Sorte Peredovik werden in der V. Periode der Organogenese (nach Kupermann) mit einer 0,2%igen wäßrigen Emulsion von 1,1,3-Tribrompropan, 1,2--Dibrompropan behandelt. Die Emulsion enthält 0,5 Masse% C12-C14-Kalziumalkylbenzolsulfonat und 0,01 Masse% Dimethylsulfoxid als Adjuvans. Der Verbrauch an Präparat beträgt 1,2 kg/ha bei 600 1 Wasserdurchsatz. Die Prüfergebnisse sind in der Tabelle 16 angegeben. Die gleichen Ergebnisse sind bei der Behandlung der Sonnenblume Sorte Peredovik in der VI. Periode der Organogenese erhalten.
Man verfährt analog den Beispielen 85 und 86. Als Sterilisationsmittel dient eine 0,1%ige wäßrige Emulsion von 1,2-Dibrom-3-chlorpropan. Der Verbrauch an Präparat beträgt […]. Die Prüfergebnisse sind in der Tabelle 16 angegeben.

Sonnenblume Linie BK 119 = assay: Field test of pollen sterilisation, sunflower line BK 119; format: in vivo
From the text: as §1, §2, §3, §4
Pflanzen der Sonnenblume Linie BK 119 werden mit einer 0,2%igen wäßrigen Emulsion von 1,1,3-Tribrompropan bzw. 1,2-Dibrompropan behandelt. Die Emulsion enthält 0,5 Masse% C12-C14 Natriumalkylbenzolsulfonat und 0,01 Masse% Dimethylformamid als Adjuvans. Der Verbrauch an Präparat beträgt 1,2 kg/ha bei 600 1 Wasserdurchsatz. Die Prüfergebnisse sind in der Tabelle 17 angegeben. Die gleichen Ergebnisse sind bei der Behandlung von Sonnenblume Linie BK in der VI. Periode der Organogenese erhalten.
Man verführt analog den Beispielen 88-89. Als Sterilisationsmittel dient eine 0,1%ige wäßrige Emulsion von 1,2--Dibrom-3-chlorpropan. Der Verbrauch an Präparat beträgt 0,6 kg/ha bei 600 1 Wasserdurchsatz. Die Prüfergebnisse sind in der Tabelle 17 angegeben.

[2] = period V, 0.2% aqueous emulsion, 1.2 kg/ha in 600 l water
[3] = 0.2% aqueous emulsion, 1.2 kg/ha in 600 l water
[4] = 0.1% aqueous emulsion, 1.0 kg/ha
[5] = 0.1% aqueous emulsion, 0.6 kg/ha in 600 l water

| Structure (SMILES) | Keimung von Achänen in % [1, 2] | Masse von 1000 Achänen [1, 2] | Ölgehalt von Achänen in % [1, 2] | Keimung von Achänen in % (Sonnenblume Linie BK 119; [3]) | Masse von 1000 Achänen in % (Sonnenblume Linie BK 119; [3]) | Ölgehalt von Achänen in g (Sonnenblume Linie BK 119; [3]) | Keimung von Achänen in % [1, 4] | Masse von 1000 Achänen [1, 4] | Ölgehalt von Achänen in % [1, 4] | Keimung von Achänen in % (Sonnenblume Linie BK 119; [5]) | Masse von 1000 Achänen in % (Sonnenblume Linie BK 119; [5]) | Ölgehalt von Achänen in g (Sonnenblume Linie BK 119; [5]) |
| --- | --- | --- | --- | --- | --- | --- | --- | --- | --- | --- | --- | --- |
| BrCCC(Br)Br [Beispiel 1, 1,1,3-Tribrompropan] | 100,0% | 80,4 | 54,5% | 96,6% | 56,7% | 51,1 g | – | – | – | – | – | – |
| CC(Br)CBr (stereo not drawn) [Beispiel 5, 1,2-Dibrompropan] | 100,0% | 82,7 | 53,2% | 100,0% | 59,5% | 50,3 g | – | – | – | – | – | – |
| ClCC(Br)CBr (stereo not drawn) [Beispiel 7, 1,2-Dibrom-3-chlorpropan] | – | – | – | – | – | – | 100,0% | 89,0 | 53,5% | 99,3% | 54,0% | 51,6 g |
